Assay: Maximum adsorption capacity of the sol-gel molecularly imprinted sorbent (six sulfa drugs)
Type: binding
Conditions: 30 mg MIP, mixture of 6 sulfa drugs 10-1000 mg/L
Procedure: In order to calculate the sorption capacity at equilibrium a SPE cartridge packed with 30 mg of MIP particles was used. Experiments under optimum conditions were carried out sequentially on the same SPE cartridge. In each subsequent test, the initial concentration was increased in a range 10-1000 ng μL^-1 and the final concentration was determined by HPLC-DAD. The amount of adsorbed (mg/g) was calculated by using the formula reported by Vanderborght and Van […]:00002} Were Ci is the initial concentration (mg/L), Ce is the equilibrium concentration (mg/L), V is the volume (L) and m is the mass (g) of the adsorbent. […] The final Ce concentrations were calculated on HPLC. The maximum capacity (Q, mg/g) for each of the six compounds was determined with the above equation. The results are represented in FIG. 12.

Nc1ccc(S(N)(=O)=O)cc1 [Sulfanilamide]
Adsorption Capacity, Q: 6.0 mg/g
